Here are results for three substances from article PMC10156737.

The chains behind the UniProt entries cited, without tags or fusion partners. Where a name states a change or a piece, a line headed by the entry shows the natural chain unless it says otherwise. A line that says so, or that is headed by a name, gives the form on record, which may keep a tag or linker. Residues count along the entry.
complement component C8 alpha chain, GFP-tagged (C8A-GFP) (P07357, residues 31-584): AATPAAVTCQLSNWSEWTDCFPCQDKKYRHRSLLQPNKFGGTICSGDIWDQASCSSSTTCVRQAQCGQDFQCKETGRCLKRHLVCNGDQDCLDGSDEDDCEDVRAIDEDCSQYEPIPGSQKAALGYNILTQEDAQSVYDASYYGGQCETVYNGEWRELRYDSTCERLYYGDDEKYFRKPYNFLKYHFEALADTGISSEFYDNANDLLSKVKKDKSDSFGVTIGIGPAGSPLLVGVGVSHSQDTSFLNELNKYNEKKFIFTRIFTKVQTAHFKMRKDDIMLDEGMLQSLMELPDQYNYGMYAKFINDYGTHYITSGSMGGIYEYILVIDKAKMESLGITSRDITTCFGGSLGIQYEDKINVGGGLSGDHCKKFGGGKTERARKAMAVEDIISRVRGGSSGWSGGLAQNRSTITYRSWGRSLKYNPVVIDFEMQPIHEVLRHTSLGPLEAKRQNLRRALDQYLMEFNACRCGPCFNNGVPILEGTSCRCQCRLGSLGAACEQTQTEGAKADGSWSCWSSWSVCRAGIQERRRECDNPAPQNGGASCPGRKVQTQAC
complement component C8 alpha chain variant R444H, GFP-tagged (C8A-Variant-GFP) (P07357, form named): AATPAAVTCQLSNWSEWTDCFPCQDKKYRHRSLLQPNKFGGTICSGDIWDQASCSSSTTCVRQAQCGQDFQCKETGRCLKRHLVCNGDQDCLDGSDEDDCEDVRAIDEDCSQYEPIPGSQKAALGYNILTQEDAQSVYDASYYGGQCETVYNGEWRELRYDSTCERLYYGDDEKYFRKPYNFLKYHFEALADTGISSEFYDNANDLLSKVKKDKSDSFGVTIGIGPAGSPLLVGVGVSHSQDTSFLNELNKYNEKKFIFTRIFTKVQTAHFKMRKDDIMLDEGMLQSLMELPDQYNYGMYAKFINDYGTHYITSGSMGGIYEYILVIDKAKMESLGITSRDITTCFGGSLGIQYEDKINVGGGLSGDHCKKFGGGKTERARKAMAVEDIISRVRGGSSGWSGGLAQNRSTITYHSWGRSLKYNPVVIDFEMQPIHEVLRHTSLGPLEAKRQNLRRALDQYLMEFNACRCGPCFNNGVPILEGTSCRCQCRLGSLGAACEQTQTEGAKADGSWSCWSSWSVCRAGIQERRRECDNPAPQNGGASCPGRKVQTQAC
complement component C8 beta chain, GFP-tagged (C8B-GFP) (P07358, residues 55-591): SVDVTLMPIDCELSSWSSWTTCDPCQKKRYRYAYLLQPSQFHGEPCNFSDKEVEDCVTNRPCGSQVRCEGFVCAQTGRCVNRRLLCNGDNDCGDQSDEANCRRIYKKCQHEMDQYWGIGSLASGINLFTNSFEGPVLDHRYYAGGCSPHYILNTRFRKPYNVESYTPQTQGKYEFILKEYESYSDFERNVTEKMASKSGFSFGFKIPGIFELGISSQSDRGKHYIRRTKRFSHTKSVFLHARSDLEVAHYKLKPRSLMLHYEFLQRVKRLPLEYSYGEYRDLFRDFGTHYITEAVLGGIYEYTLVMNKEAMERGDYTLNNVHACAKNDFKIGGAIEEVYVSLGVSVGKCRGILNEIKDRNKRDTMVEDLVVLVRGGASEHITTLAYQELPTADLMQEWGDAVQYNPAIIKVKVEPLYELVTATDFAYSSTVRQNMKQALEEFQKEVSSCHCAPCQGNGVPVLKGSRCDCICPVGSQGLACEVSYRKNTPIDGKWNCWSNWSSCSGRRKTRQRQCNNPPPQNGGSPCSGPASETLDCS
complement component C8 beta chain variant D382Y, GFP-tagged (C8B-Variant-GFP) (P07358, form named): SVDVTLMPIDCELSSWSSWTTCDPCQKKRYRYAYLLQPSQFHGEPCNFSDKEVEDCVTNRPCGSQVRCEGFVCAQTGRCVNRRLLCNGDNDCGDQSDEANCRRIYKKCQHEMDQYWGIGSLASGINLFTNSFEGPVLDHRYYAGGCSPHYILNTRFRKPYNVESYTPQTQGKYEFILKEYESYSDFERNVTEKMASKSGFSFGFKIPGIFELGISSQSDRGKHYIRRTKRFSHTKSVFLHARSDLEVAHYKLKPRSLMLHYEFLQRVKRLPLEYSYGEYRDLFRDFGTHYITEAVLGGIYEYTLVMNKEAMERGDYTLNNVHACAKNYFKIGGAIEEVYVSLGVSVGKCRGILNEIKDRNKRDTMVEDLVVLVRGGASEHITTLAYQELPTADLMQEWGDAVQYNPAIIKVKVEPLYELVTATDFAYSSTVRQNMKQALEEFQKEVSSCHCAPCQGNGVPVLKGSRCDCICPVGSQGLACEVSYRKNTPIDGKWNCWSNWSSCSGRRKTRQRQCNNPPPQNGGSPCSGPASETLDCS
UniProt P07360, residues 21-202: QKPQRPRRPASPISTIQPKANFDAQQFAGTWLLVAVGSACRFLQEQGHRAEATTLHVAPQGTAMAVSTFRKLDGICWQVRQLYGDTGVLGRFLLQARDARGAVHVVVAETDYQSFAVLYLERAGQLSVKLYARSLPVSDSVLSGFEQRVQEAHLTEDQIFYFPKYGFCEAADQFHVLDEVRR

Holding throughout (assay): co-IP; lysates (450 ug protein, Pierce IP Lysis Buffer) of HEK293 cells co-transfected with all three C8 subunits (wild type, or with the C8A or the C8B variant); 1 ug rabbit monoclonal anti-C8A or anti-C8B, 4°C overnight; Dynabeads Protein A; washed with PBS pH 7.4, 0.02% Tween 20; western blot for C8A, C8B and C8G; rabbit IgG as negative control
(In general: In western blotting, separated proteins are transferred to a membrane and probed.)

The target of experiment [1] is complement component C8 alpha chain, GFP-tagged (C8A-GFP) (human) (UniProt P07357).
Experiment [2] addresses complement component C8 alpha chain variant R444H, GFP-tagged (C8A-Variant-GFP) (human) (UniProt P07357).
Experiment [3] deals with complement component C8 beta chain variant D382Y, GFP-tagged (C8B-Variant-GFP) (human) (UniProt P07358).
Experiment [4] deals with complement component C8 beta chain, GFP-tagged (C8B-GFP) (human) (UniProt P07358).

These are yes or no findings as the source states them, for the method shown. Binding seen in cells or lysates may run through a third protein. Some entries that bind do so weakly or less than the wild type.

Consider “complement component C8 beta chain variant D382Y, GFP-tagged (C8B-Variant-GFP) (from UniProt P07358 55-591)”, for which, in experiment [1], the binding result was “binds”.

For the substance “complement component C8 beta chain, GFP-tagged (C8B-GFP) (from UniProt P07358 55-591)”, the binding entry in experiment [2] and in experiment [1] was “binds” throughout.

Turning to “complement component C8 gamma chain, DDK (FLAG)-tagged (C8G-FLAG) (from UniProt P07360 21-202)”, the binding entry in experiment [2], in experiment [3], in experiment [4] and in experiment [1] was “binds” each time.
